# Out of some 52,000 sequences screened, about 210 (0.4%) were called active.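 Rule for the calls: active = gene whose silencing raises cell survival under the drug, median off-target-corrected z-score across its silencing RNAs 2 or more; inactive = the rest.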 The list shows a part of the results.
# Assay: Resistance to Poly (ADP-Ribose) Polymerase inhibitor: Gene Identification via Genome-wide siRNA Screen
# Conditions: mouse BRCA2 R2336H ES cells, olaparib, CellTiter-Glo viability; active compounds read high
# How it was run: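 Genome-wide siRNA screen (3 siRNAs/gene, 20 nM) in mouse ES cells carrying hypomorphic BRCA2 R2336H; olaparib 500 nM added 48 h post-transfection, CellTiter-Glo viability 72 h later. Normalized to plate-median negative control; MAD z-scores, gene median, seed-adjusted.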
row,Sequence,z-score
1,GCCCAAACUAAAUAAAGGATT against Il1r2,inactive: 0.935
2,GCUCAUCGGAGAGUUCUAUTT against Ube2h,inactive: 1.41
3,GCCCAUUGUAAGAGUAACUTT against 4930588M11Rik,inactive: 0.881
4,CCGGGAUGGAGAAUAAGCUTT against 2610306H15Rik,inactive: 0.679
5,GCCUUAUAUAGCAACAUACTT against Slc25a3,inactive: -0.243
6,GAAAUGAGUCCUUGAAAAGTT against Olfr127,inactive: 0.198
7,GGUAAAUGUCUGCUCUGAGTT against Selk,inactive: -0.626
8,CCACUUGGUGCUAAAAAAATT against Frag1,inactive: -0.177
9,GGUCAUCGAAUCUGGAGUATT against BC027061,inactive: 0.057
10,GGAUUUGAUGAUCUUUCCUTT against 5730458D16Rik,inactive: -1.2
11,CCUCAUAGAAUGAACAUGATT against Timp3,inactive: -1.97
12,GCCAUUUCUUAUCAAGUGGTT against Laptm4a,inactive: 0.24
13,GGGAUAUUCACUUUUGUAGTT against Arnt,inactive: 0.553
14,CGUAGGUUGUAAUGGUGGCTT against BC051665,inactive: -1.77
15,GGUAAAUCAAAUCACUGCCTT against Slamf1,inactive: 1.2
16,GGAAGUUUGUUCAUCCCACTT against D6Ertd253e,inactive: 1.52
17,GCAUAAAGGAAUUGAUUCCTT against C330011K17Rik,inactive: 0.495
18,GGAGAUCUUCAAGAAUUCATT against Entpd5,inactive: 0.275
19,GGCCAGAUCACCAAGAUUCTT against Wdr40a,inactive: 2.15
20,GGACUGAAGAAGUGUGUGGTT against Scgb3a2,inactive: -2.67
21,CCAUGCUUCCCUUCAACAUTT against Adcy2,inactive: 0.618
22,GGACCAUGAAGAGGAUCCUTT against Gja7,inactive: 0.129
23,CCUGGGUCAAACAAAAAAGTT against 3110001I22Rik,inactive: 0.852
24,GGUUUCCAUAUUUGGAUCCTT against Dhx40,inactive: 0.64
25,GCUAAUUUAUCCAAAGCCCTT against BC030335,inactive: 0.743
26,GGUCUUGUCGAUGUUCGCATT against Abhd6,inactive: 2.06

# A stretch from the list above, for reference:
row,Sequence,z-score
4,CCGGGAUGGAGAAUAAGCUTT against 2610306H15Rik,inactive: 0.679
5,GCCUUAUAUAGCAACAUACTT against Slc25a3,inactive: -0.243
6,GAAAUGAGUCCUUGAAAAGTT against Olfr127,inactive: 0.198
7,GGUAAAUGUCUGCUCUGAGTT against Selk,inactive: -0.626
8,CCACUUGGUGCUAAAAAAATT against Frag1,inactive: -0.177
9,GGUCAUCGAAUCUGGAGUATT against BC027061,inactive: 0.057
10,GGAUUUGAUGAUCUUUCCUTT against 5730458D16Rik,inactive: -1.2
11,CCUCAUAGAAUGAACAUGATT against Timp3,inactive: -1.97
12,GCCAUUUCUUAUCAAGUGGTT against Laptm4a,inactive: 0.24
13,GGGAUAUUCACUUUUGUAGTT against Arnt,inactive: 0.553
14,CGUAGGUUGUAAUGGUGGCTT against BC051665,inactive: -1.77
15,GGUAAAUCAAAUCACUGCCTT against Slamf1,inactive: 1.2
16,GGAAGUUUGUUCAUCCCACTT against D6Ertd253e,inactive: 1.52
17,GCAUAAAGGAAUUGAUUCCTT against C330011K17Rik,inactive: 0.495
18,GGAGAUCUUCAAGAAUUCATT against Entpd5,inactive: 0.275
19,GGCCAGAUCACCAAGAUUCTT against Wdr40a,inactive: 2.15
20,GGACUGAAGAAGUGUGUGGTT against Scgb3a2,inactive: -2.67
21,CCAUGCUUCCCUUCAACAUTT against Adcy2,inactive: 0.618
22,GGACCAUGAAGAGGAUCCUTT against Gja7,inactive: 0.129

# (cont.)

row,Sequence,z-score
1,GGAGCAACAGAAAAAGUGATT against 1110063F24Rik,inactive: 0.624
2,GCGGUUUCUCCUUGGUAAATT against Ankmy1,inactive: -0.0337
3,GGCCAAGUAGCCAUGGGAUTT against Lyl1,inactive: -1.32
4,GGUUGAACUCAAAGUAAAGTT against Preb,inactive: 0.0884
5,GCUUAUUUGAAGUCUCAUGTT against Cpa5,inactive: 0.317
6,GGGUGUUGUGUCCUCUCAATT against Gckr,inactive: 0.033
7,CCGGCACACCAUUGAUUUCTT against 4931428F04Rik,inactive: -0.492
8,GGAAACACUAAAGUCAUUUTT against Gabrg1,inactive: -1.18
9,GGGUAAAAUCAGUGAACCUTT against 1810031K02Rik,inactive: -1.51
10,CGAGGAUUUCGAUUCCAUUTT against 4933405K18Rik,inactive: -0.0374
11,GGUUAUAGAAUGCUUGAUUTT against Rttn,inactive: 0.0468
12,GCAUGUAUGUGUCGAUAAUTT against Slc33a1,inactive: 0.411
13,CGACUUUGGACAAAAAUUGTT against Fbxl11,inactive: 0.984
14,GGACAUCUUCUCCGAUAUCTT against Tgfbr2,inactive: -0.674
15,GGCUUUAUGCAUCAGUUAATT against AI507211,inactive: 0.589
16,GCUCAAGGACUUACGCAACTT against BC030314,inactive: 0.155
17,GGAGUGGAGUGAUUUCAGATT against Pdcd6,inactive: -1.84
18,GGUUCAAAACCAAGAGUGUTT against Ahi1,inactive: 0.849
19,GGAAAAAGAAGUCCACACATT against 1700016D06Rik,inactive: -0.802
20,GGACACUAUCCGUGCAUCUTT against Tsg101,inactive: 0.374
21,CGUGGGUAGAUCCACAUUUTT against 9030611K07Rik,inactive: -2.61
22,GGAAGAUGAGAAAAUUCCATT against Ccni,inactive: -0.436
23,GCUAUUGCCUUAGAUCCAUTT against Lrp6,inactive: 0.652
24,GGUGCAGAAGAUGUGGAUGTT against Cldn1,inactive: -1.18
25,GGACCUUCAGAAGCUGAUCTT against 2610528E23Rik,inactive: 1.39
26,GCCAUUCUUCUCUUAGAAGTT against Npepl1,inactive: -0.0973

row,Sequence,z-score
1,GGCUCCAUAUGGAAUGCAGTT against Ets2,inactive: 0.401
2,GGUAGCUAGAGAACUCUAUTT against Za20d1,inactive: -0.824
3,GGAUUAGAGGCUAAGGCAGTT against D10Bur2e,inactive: -2.08
4,GGGACAAGUUUCUUAACUGTT against F9,inactive: -0.261
5,CGGCCUGUUAAAUACGCUGTT against Slc39a4,inactive: -0.188
6,GGGAUAGGGUUCAAUUAGGTT against Bcl2l13,inactive: 0.222
7,GGUUUGAAUGAAUUCAAGGTT against 6030452D12Rik,inactive: -0.142
8,GACAAUACCAUCUCCCACUTT against Olfr347,inactive: -1.13
9,GGAUAGCUUCCUUCAGGUGTT against Hkr2,inactive: 2.98
10,GGAAAAAGGCACGAAAUGATT against 1110013G13Rik,inactive: -1.21
11,GUUCUUAGAGCAGAAGUACTT against Zar1,inactive: -0.814
12,CCUACCAACUUUACAAGAUTT against Tlr3,inactive: 0.0494
13,GGAAACAAUAACAACUUCCTT against Spinlw1,inactive: 0.871
14,GGUACUAGGUCUGAGGGAGTT against Rdh6,inactive: 0.16
15,GGUUUCAGAAUGGAGUUACTT against Saa2,inactive: 0.219
16,GCAGGUCACUUUCUAGAGATT against Sfrs3,inactive: 0.314
17,CCAGAGCAACUGUUGCUAATT against Itgb2l,inactive: 1.25
18,GGUUAGAGAUUGUUCUGUUTT against Olfr267,inactive: -0.733
19,GGGAAUUGGGUGUAUACAATT against Hmgcl,inactive: -0.596
20,CCCUAGAAACUACAGUAAUTT against B830009D23Rik,inactive: -1.12
21,GGUCUUCAAAAGCAAUAAATT against Mcm3ap,inactive: -0.227
22,GGGUAAAUCUACAAGAAGUTT against Snx25,inactive: 0.517
23,GGAUUUGAGCAACUACAGUTT against Eya3,inactive: 0.0724
24,GGAACCGCUGAUGCUUAAGTT against Ctsl,inactive: -0.736
25,GGAUGUUCUUGAAGAAUUCTT against Dgkb,inactive: 0.302
26,GGCUGGAUGGCAUCUUUCUTT against 4732467L16Rik,inactive: -1.52

row,Sequence,z-score
1,GCAACAGACAUUGCCAUCATT against Olfr627,inactive: -0.132
2,GCAUUAAUUGCUUCUCUUATT against Nup155,inactive: -0.602
3,GGGCCUAUGCAAUGAAACCTT against Tshr,inactive: -1.29
4,GAUUUUGUUUAUGGCCCAGTT against Olfr1261,inactive: -0.0334
5,GCAUUCUAUCUUGUCUGGATT against 5730522E02Rik,inactive: -1.73
6,AUCUCUCCUGUUCUAACACTT against Olfr26,inactive: -1.75
7,CCAACUCUAUCGUACUAAATT against AW049604,inactive: 0.0579
8,GGCUAUUCAGGACUACAGCTT against Siat5,inactive: 1.37
9,CGUGAACGUAGAGUUUUCUTT against Fcrh3,inactive: -0.118
10,GGCUAUGACUAGCUAGAAUTT against Hoxc5,inactive: 0.154
11,GGAUGACUGUUACAUUAGGTT against E130306M17Rik,inactive: -0.712
12,GCUGACCGAUGUCAUCCUCTT against Itpk1,inactive: 2.41
13,GCUAGUUAGAACCUCGUUCTT against Cdk5,inactive: 0.283
14,GGAUUUCGAGAUAACUAUGTT against Tbr1,inactive: 1.22
15,GCACCAAGUCGUAUAAACATT against Sh3glb1,inactive: 1.11
16,GGAUCAUUCAGCAUUGUAGTT against Dnm1l,inactive: -0.979
17,GGAGGAGUAUGUUAAGGCCTT against Myh6,inactive: 1.39
18,CGGUUGUCUUUAAAGAUUCTT against Gprin1,inactive: -0.604
19,GGGAGAGCUGCUGUUUUUCTT against BC053073,inactive: 0.167
20,GCAUCUGUGUCCAAGUACUTT against Jph1,inactive: -0.302
21,CCUACUACACUCAAGGGCATT against Pgc,inactive: 3.04
22,GGAACAUUUCAACCGCCUGTT against E130012A19Rik,inactive: 2.41
23,GGAAGUCUCUAGGUUGUAUTT against Ddit4,inactive: -0.766
24,GGAAUGUUGCCGUCAUGUUTT against Olfr568,inactive: -0.966
25,GGACAAAGAAGUGAAGUGUTT against Slc26a1,inactive: -0.959
26,UACAUUAGUAGAAUGGAGGTT against Mageb3,inactive: -0.381

# Reference: PubChem BioAssay AID1347423 (Functional Genomics Laboratory (NCATS/FGL), 2020)
